## Library screening results

Each number is a percent effect as filed. The controls that fix the scale are not given in the record; negative values are as filed. Compounds were drawn at random from those tested, without regard to their results. A dash means the value is not listed here; it may have been measured.

Mtb heat-shock: 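Assay on Mycobacterium tuberculosis, filed only as a heat shock assay from Cornell; the read-out is not stated. The concentration is filed as 10 mM, unlikely as a test dose, so the dose is not known. The record gives no direction; compounds that gave an IC50 in retests scored well above the rest, so higher reads as stronger inhibition. Of about 69,000 compounds tested this way, about 930 (1.4%) reached 50% or more in at least one test.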
Mtb growth Cornell: 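Whole-cell assay for inhibitors of Mycobacterium tuberculosis growth, labelled Cornell in the record; the read-out is not stated. The concentration is filed as 10 mM, unlikely as a test dose, so the dose is not known. The record gives no direction; compounds strong in two other growth screens of this library score well above the rest, so higher reads as stronger inhibition. Size under these conditions: about 53,000 compounds, about 900 of them at 50% or above in at least one test.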

{"smiles": "O=C(Cc1ccccc1F)N1CCN(Cc2noc(C3CC3)n2)CC1", "Mtb heat-shock": -27.25, "Mtb growth Cornell": -12.86}
{"smiles": "Cc1ccc(C(=O)N2CCCCC2c2[nH]ncc2S(C)(=O)=O)cn1", "stereo": "centres unmarked", "Mtb heat-shock": -7.252}
{"smiles": "CCC1CCCN(CC(=O)Nc2oc(C)c3c(C)n[nH]c(=O)c23)C1", "stereo": "centres unmarked", "Mtb heat-shock": 8.478, "Mtb growth Cornell": 21.99}
{"smiles": "O=C(O)C(F)(F)F.O=C(O)C(F)(F)F.[H][C@]12C[C@@H](Cn3cncn3)N(C(C)=O)[C@@]1([H])CCN(Cc1cccnc1)C2", "Mtb heat-shock": -18.93, "Mtb growth Cornell": -0.2671}
{"smiles": "CN(Cc1cccs1)c1cc(N2CCCC2CO)ncn1", "stereo": "centres unmarked", "Mtb heat-shock": -0.5147, "Mtb growth Cornell": 10.77}
{"smiles": "CC(=O)N1CCN([C@@H]2CC[C@@H](NC(=O)c3cncc(C)c3)[C@H]2O)CC1", "Mtb heat-shock": -18.4, "Mtb growth Cornell": -9.853}
{"smiles": "Cc1nccn1-c1nccnc1C1CCN(Cc2ccc(F)cc2)CC1", "Mtb heat-shock": -20.44}
{"smiles": "[H][C@]12CC[C@]([H])(CN(C3CCOCC3)C1)N(Cc1cnc(SC)nc1)C2", "Mtb heat-shock": 6.72, "Mtb growth Cornell": -4.568}
{"smiles": "O=C1NCCN(C(=O)CN2CCOC2=O)C1c1cccc(F)c1", "stereo": "centres unmarked", "Mtb heat-shock": -117.8}
{"smiles": "Cc1nn(C)c(C)c1C1CCCN1C(=O)CCNS(C)(=O)=O", "stereo": "centres unmarked", "Mtb heat-shock": 8.484}
{"smiles": "Cc1nn(C)c(C)c1C1CCCN1Cc1cccc(C(N)=O)c1", "stereo": "centres unmarked", "Mtb heat-shock": 10.02, "Mtb growth Cornell": -3.916}
{"smiles": "O=C(NCCc1ccccc1)NCCN1CCC(c2cccs2)CC1", "Mtb heat-shock": 25.95, "Mtb growth Cornell": 45.08}
{"smiles": "O=C(O)C(F)(F)F.[H][C@@]12CCN(c3nncs3)[C@@]1([H])CCN2C(=O)NC1CCCC1", "Mtb heat-shock": -35.88, "Mtb growth Cornell": -19.43}
{"smiles": "Cc1ccc2cc(C(=O)N3CCCC3Cn3cccn3)[nH]c2c1", "stereo": "centres unmarked", "Mtb heat-shock": -29.21}
{"smiles": "Cc1nn(C)cc1CN1CCCn2nc(CNC(=O)C3CCC3)cc2C1", "Mtb heat-shock": 3.186, "Mtb growth Cornell": 16.48}
{"smiles": "CNS(=O)(=O)c1ccc(C(=O)N2CCCC(n3cccn3)C2)cc1", "stereo": "centres unmarked", "Mtb heat-shock": -7.454}
{"smiles": "CCn1nc(C)c(CCNC(=O)C2CCCN(C(=O)N(C)C)C2)c1C", "stereo": "centres unmarked", "Mtb heat-shock": -18.58, "Mtb growth Cornell": 25.99}
{"smiles": "Cc1cccc(C(=O)N2CCCC(c3nccn3Cc3cscn3)C2)n1", "stereo": "centres unmarked", "Mtb heat-shock": 13.15, "Mtb growth Cornell": 4.263}
{"smiles": "COC(=O)CCN1CCC(NC(=O)OC(C)(C)C)CC1", "Mtb heat-shock": -17, "Mtb growth Cornell": 12.7}
{"smiles": "Cc1c(-c2ccccc2)ncn1CC(c1cccnc1)N1CCOCC1", "stereo": "centres unmarked", "Mtb heat-shock": -2.784}
{"smiles": "O=C(O)C(F)(F)F.O=C(O)C(F)(F)F.[H][C@@]12CCCO[C@]1([H])[C@H](N(C)C)CN(Cc1ccoc1)C2", "Mtb heat-shock": 8.567, "Mtb growth Cornell": 2.97}
{"smiles": "O=C(O)C(F)(F)F.O=C(O)C(F)(F)F.[H][C@@]12CCCO[C@]1([H])[C@H](N(C)Cc1ccco1)CN(Cc1ccc(C)o1)C2", "Mtb heat-shock": -5.491, "Mtb growth Cornell": 27.89}
{"smiles": "O=C(N1CCc2ccccc2CC1)C1(O)Cc2ccccc2C1", "Mtb heat-shock": -11.46}
{"smiles": "O=C(c1ccc2c(c1)OCCO2)N1CCCC(n2ccnc2)C1", "stereo": "centres unmarked", "Mtb heat-shock": 8.826, "Mtb growth Cornell": -34.2}
{"smiles": "COCCN1CCC(CNC(=O)C2(C#N)CCCCC2)CC1", "Mtb heat-shock": 10.73}
{"smiles": "Cc1ccc([C@@H]2CN(S(=O)(=O)C(C)C)C[C@H]2N(C)C)cc1", "Mtb heat-shock": -7.958, "Mtb growth Cornell": 0.07802}
{"smiles": "O=C(O)C(F)(F)F.[H][C@@]12CCN(Cc3cccc(F)c3)[C@]1([H])CC[C@@H](C(=O)N1CCCCO1)O2", "Mtb heat-shock": -4.608, "Mtb growth Cornell": -5.44}
{"smiles": "O=C(O)CC(NC(=O)c1ccccc1OC(F)F)c1cccs1", "stereo": "centres unmarked", "Mtb heat-shock": -2.384, "Mtb growth Cornell": -14.63}
{"smiles": "Cc1ncsc1CN(Cc1ccccc1)Cc1ncc[nH]1", "Mtb heat-shock": -7.568, "Mtb growth Cornell": -32.3}
{"smiles": "COc1ccc(NC(=O)CCSc2ccc3nncn3n2)c(OC)c1", "Mtb heat-shock": -5.474, "Mtb growth Cornell": 33.29}
{"smiles": "CS(=O)(=O)NC1CCN(C(=O)NCCNc2ccccn2)CC1", "Mtb heat-shock": 18.75, "Mtb growth Cornell": -8.918}
{"smiles": "NS(=O)(=O)CC1CCCN(C(=O)CCCC2CCCC2)C1", "stereo": "centres unmarked", "Mtb heat-shock": -16.77, "Mtb growth Cornell": 21.8}
{"smiles": "O=C(NCc1ccccc1CN1CCCCC1)Nc1nncs1", "Mtb heat-shock": 0.7471, "Mtb growth Cornell": -7.701}
{"smiles": "CN(C)C(=O)c1cccc(C2CNCCN2C)c1", "stereo": "centres unmarked", "Mtb heat-shock": -2.635, "Mtb growth Cornell": 20.9}
{"smiles": "[H][C@]12CCN(C(=O)CC(C)(C)C)CC[C@@]1([H])S(=O)(=O)CCN2S(C)(=O)=O", "Mtb heat-shock": -6.399, "Mtb growth Cornell": 19.1}
{"smiles": "OC1CCN(c2ccccc2NCc2nc(-c3ccoc3)no2)CC1", "Mtb heat-shock": -16.64, "Mtb growth Cornell": 5.21}
{"smiles": "CN(C)c1cc(N(C)Cc2cc(C(C)(C)C)n[nH]2)ncn1", "Mtb heat-shock": -157.3}
{"smiles": "O=C(O)C(F)(F)F.O=C(O)C(F)(F)F.[H][C@@]12COC[C@]1(C(=O)NC1CC(F)(F)C1)CN(Cc1cccnc1)C2", "Mtb heat-shock": 1.747, "Mtb growth Cornell": 2.255}

The first 3 entries again:

SMILES	Mtb heat-shock	Mtb growth Cornell
O=C(Cc1ccccc1F)N1CCN(Cc2noc(C3CC3)n2)CC1	-27.25%	-12.86%
Cc1ccc(C(=O)N2CCCCC2c2[nH]ncc2S(C)(=O)=O)cn1 (centres unmarked)	-7.252%	-
CCC1CCCN(CC(=O)Nc2oc(C)c3c(C)n[nH]c(=O)c23)C1 (centres unmarked)	8.478%	21.99%

From ChEMBL document CHEMBL3988442, “University of Dundee, Small-Polar-MMV Screening Library” (2021).